{"source": "PubChem BioAssay AID686938 (Drosophila RNAi Screening Center, 2013)", "assay": "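Fly genes required for calcium entry once internal stores are emptied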 (primary screen)", "cells": "Drosophila S2R+ cells", "reagents": "long dsRNA against Drosophila genes, about 0.25 µg dsRNA per well, roughly 10,000 cells", "duration": "5 days of knock-down before the calcium assay", "treatment": "thapsigargin (SERCA pump blocker) to empty calcium stores; entry signal taken 4 min after adding it", "detection": "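Duplicate raw fluo-4 intensities per well from a plate reader, at rest and four minutes after thapsigargin emptied calcium stores; entry-to-rest ratio filled for only some wells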", "scale": "calcium entry signal: higher = stronger calcium signal after store depletion; resting calcium signal: higher = higher resting calcium signal", "units": "calcium entry signal in fluorescence units; resting calcium signal in fluorescence units", "active means": "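Hit if the duplicate-averaged plate z-score for entry over resting signal is under −3; wells with weak total dye signal (Fmax z < −2) or more than 5 off-targets removed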", "meaning of the calls": "active = strongly reduced calcium entry; inactive = no strong reduction", "note": "In all, the deposit lists about 23,000 reagents; below is a random part of those that have a named target and a result. Over the whole deposit, 75 (0.33%) are marked active. 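Raw plate signals without normalisation; calls rest on plate z-scores that were not deposited; ratio present for only 364 wells.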 The numbers tell different reagents against one gene apart. Not stated in the record: the dose of the treatment."}
{"target": "CG11414", "reagent no.": 1, "calcium entry signal, replicate 1": 3.88e7, "resting calcium signal, replicate 1": 1.91e7, "outcome": "inactive"}
{"target": "CG15543", "reagent no.": 1, "calcium entry signal, replicate 1": 4.37e7, "calcium entry signal, replicate 2": 5.33e7, "resting calcium signal, replicate 1": 2.15e7, "resting calcium signal, replicate 2": 2.06e7, "outcome": "inactive"}
{"target": "Pgant9", "reagent no.": 1, "calcium entry signal, replicate 1": 2.54e7, "calcium entry signal, replicate 2": 6.19e7, "resting calcium signal, replicate 1": 1.28e7, "resting calcium signal, replicate 2": 2.56e7, "outcome": "inactive"}
{"target": "Pgant9", "reagent no.": 2, "calcium entry signal, replicate 1": 4.36e7, "calcium entry signal, replicate 2": 5.66e7, "resting calcium signal, replicate 1": 2.03e7, "resting calcium signal, replicate 2": 3.02e7, "outcome": "inactive"}
{"target": "Pgant9", "reagent no.": 3, "calcium entry signal, replicate 1": 4.09e7, "calcium entry signal, replicate 2": 5.69e7, "resting calcium signal, replicate 1": 1.85e7, "resting calcium signal, replicate 2": 2.54e7, "outcome": "inactive"}
{"target": "Pgant9", "reagent no.": 4, "calcium entry signal, replicate 1": 2.42e7, "calcium entry signal, replicate 2": 3.10e7, "resting calcium signal, replicate 1": 1.46e7, "resting calcium signal, replicate 2": 1.79e7, "outcome": "inactive"}
{"target": "Pgant9", "reagent no.": 5, "calcium entry signal, replicate 1": 4.88e7, "calcium entry signal, replicate 2": 5.82e7, "resting calcium signal, replicate 1": 1.97e7, "resting calcium signal, replicate 2": 2.61e7, "outcome": "inactive"}
{"target": "Pgant9", "reagent no.": 6, "calcium entry signal, replicate 1": 4.54e7, "calcium entry signal, replicate 2": 5.33e7, "resting calcium signal, replicate 1": 2.05e7, "resting calcium signal, replicate 2": 2.56e7, "outcome": "inactive"}
{"target": "Pgant9", "reagent no.": 7, "calcium entry signal, replicate 1": 3.79e7, "calcium entry signal, replicate 2": 3.20e7, "resting calcium signal, replicate 1": 2.34e7, "resting calcium signal, replicate 2": 1.56e7, "outcome": "inactive"}
{"target": "Pgant9", "reagent no.": 8, "calcium entry signal, replicate 1": 3.52e7, "calcium entry signal, replicate 2": 4.08e7, "resting calcium signal, replicate 1": 1.59e7, "resting calcium signal, replicate 2": 2.08e7, "outcome": "inactive"}
{"target": "Prosalpha2", "reagent no.": 1, "calcium entry signal, replicate 1": 1.70e7, "calcium entry signal, replicate 2": 2.01e7, "resting calcium signal, replicate 1": 1.34e7, "resting calcium signal, replicate 2": 1.50e7, "outcome": "inactive"}
{"target": "Dh44-R2", "reagent no.": 1, "calcium entry signal, replicate 1": 3.19e7, "calcium entry signal, replicate 2": 3.48e7, "resting calcium signal, replicate 1": 1.64e7, "resting calcium signal, replicate 2": 1.67e7, "outcome": "inactive"}
{"target": "Dh44-R2", "reagent no.": 2, "calcium entry signal, replicate 1": 3.69e7, "calcium entry signal, replicate 2": 3.58e7, "resting calcium signal, replicate 1": 1.83e7, "resting calcium signal, replicate 2": 1.69e7, "outcome": "inactive"}
